Reference: patent US20090048160A1, “Antimicrobial activity of bovine bactericidal/permeability-increasing protein (BPI)-derived peptides against Gram-negative bacterial mastitis isolates” (priority 2007, published 2009)
Some entries share one result that the patent states for a list of compounds. Ends that are not written are not given here.

System: bacterial LPS derived from E. coli 0111:B4
Experiment: LPS neutralization, Limulus amebocyte lysate (LAL) assay
Format: biochemical
Settings: 30 μg/ml; 1 ng LPS, 30 min
Procedure: FIG. 1 depicts the mean (±S.E.) percent neutralization of bacterial LPS bioactivity as determined with the Limulus amebocyte lysate assay. Increasing concentrations of peptides or polymixin B were incubated with 1 ng of E. coli-derived LPS for 30 min. Following incubation, the amount of free LPS was determined by extrapolation from a standard curve and the percent of bound (neutralized) LPS was calculated.
The ability of the peptides to neutralize LPS was determined using a commercially available Limulus amebocyte lysate (LAL) assay (Cambrex BioScience Walkersville, Inc., Walkersville, Md.). As a positive control, polymyxin B (Sigma Chemical Co.) was evaluated in parallel with the peptides. […] Following the incubation, the amount of free LPS was determined in each sample according to the manufacturer's instructions. […] The reaction was stopped by the addition of 50 μl of glacial acetic acid and the absorbance measured at a wavelength of 405 nm on a microplate reader (Biotec Instruments, Inc., Winooski, Vt.). The amount of non-bound LPS was extrapolated from a standard curve and the percent inhibition calculated according to the following formula: […]

VRIHISGSSLGWLIQLFRKRIESLLQKS [bBPI142-169]
inhibition of LPS activity: ≥ 93%
